{
  "source": "paper PMC7819943",
  "about": "“Rice protein-binding microarrays: a tool to detect cis-acting elements near promoter regions in rice”",
  "note": "The other results are listed elsewhere or left out.",
  "data": [
    {"molecular_target": "T1, OsSMF1 (Oryza sativa, UniProt Q6ZLB0 1-436)", "T1 sequence": "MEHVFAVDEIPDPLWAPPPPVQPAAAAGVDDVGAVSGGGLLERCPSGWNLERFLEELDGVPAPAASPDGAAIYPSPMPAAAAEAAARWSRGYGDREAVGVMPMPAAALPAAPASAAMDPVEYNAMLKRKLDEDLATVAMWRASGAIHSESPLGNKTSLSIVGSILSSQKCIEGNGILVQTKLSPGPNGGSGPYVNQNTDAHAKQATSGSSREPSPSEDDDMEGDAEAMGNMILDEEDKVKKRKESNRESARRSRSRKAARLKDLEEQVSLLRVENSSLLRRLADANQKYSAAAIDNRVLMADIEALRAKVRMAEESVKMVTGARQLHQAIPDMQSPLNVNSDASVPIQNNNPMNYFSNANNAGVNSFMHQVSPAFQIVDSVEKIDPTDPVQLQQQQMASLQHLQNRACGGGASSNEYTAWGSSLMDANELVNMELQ", "experiment": "protein-binding microarray (RPBM); PBS, 2% BSA, 51.3 ng/ul salmon testes DNA, 50 uM zinc acetate, 200 nM TF, 25 C, 1 h; high values mean tight binding", "details": "protein: recombinant; tags: N-terminal polyhistidine and DsRed monomer fusion (pET32a); chain copies: 2; label: CyDye5-dUTP incorporated in the synthesized complementary strand; 3' TTTTT single-stranded linker to array surface; dsDNA, one strand shown", "outline": "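Using Ni–NTA, transcription factors fused N-terminally to polyhistidine and DsRed were purified after expression in E. coli BL21-CodonPlus. These were incubated at 200 nM with a blocked, double-stranded custom Agilent array for 1 h at 25 °C in a buffer containing 50 µM zinc acetate, and the array was washed. The binding signal is per-feature fluorescence intensity (arbitrary units) on an Axon 4000B scanner.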", "values": [
      {"sequence": "AATTGTGTAGTATGTGACTATTGTATGAATGAGCTATTAGCGGAGTCACCTAGTGCAG", "binding signal": "27600 fluorescence intensity (a.u.)"},
      {"sequence": "GGCCTGCAAACTGCTTACGCCTACCAGTTTGTACCCGATCCGGAGTCACCTAGTGCAG", "binding signal": "3720 fluorescence intensity (a.u.)"},
      {"sequence": "TTACAGCCACAATGTTCTAGCTCTACCCACACAACTTCTGCGGAGTCACCTAGTGCAG", "binding signal": "5120 fluorescence intensity (a.u.)"},
      {"sequence": "TGCTTTTGGGAGGCGTGTGGCGTTGTGGTGGTGGTGGTGGCGGAGTCACCTAGTGCAG", "binding signal": "3150 fluorescence intensity (a.u.)"},
      {"sequence": "AGATGCCACATCATCGTCCACTAAGAAGATATCACATCATCGGAGTCACCTAGTGCAG", "binding signal": "11600 fluorescence intensity (a.u.)"},
      {"sequence": "GATGGATAGAGAGAGAGAGAGAGAGAGATTGACACGTGAGCGGAGTCACCTAGTGCAG", "binding signal": "6550 fluorescence intensity (a.u.)"},
      {"sequence": "TAAGGCGGGGCGGGCTCGCGCCATCGACCGCACACCGGTGCGGAGTCACCTAGTGCAG", "binding signal": "3230 fluorescence intensity (a.u.)"},
      {"sequence": "CATGCAATGGTCGTCACGGCAGCTTGACGTGGGCCCACCACGGAGTCACCTAGTGCAG", "binding signal": "5880 fluorescence intensity (a.u.)"},
      {"sequence": "ACACACGCCTGCATGCGCTTTGGTGCACCATCACGCACAGCGGAGTCACCTAGTGCAG", "binding signal": "3310 fluorescence intensity (a.u.)"},
      {"sequence": "CTATAAAAGGGAGCACCACCTCCCACGCGCGCCGCAGCGGCGGAGTCACCTAGTGCAG", "binding signal": "3970 fluorescence intensity (a.u.)"},
      {"sequence": "CGAGAGGAGAGGAGACGGGTGACGCATGCAACGGCCGGCCCGGAGTCACCTAGTGCAG", "binding signal": "7900 fluorescence intensity (a.u.)"},
      {"sequence": "CCTCCTAATAACGTGCTAATTACGACACGTGTTAACCATACGGAGTCACCTAGTGCAG", "binding signal": "7650 fluorescence intensity (a.u.)"},
      {"sequence": "CAGAAACCAACCAACACAAGACACCGACCGACGCCGACCACGGAGTCACCTAGTGCAG", "binding signal": "8450 fluorescence intensity (a.u.)"},
      {"sequence": "TTCATCATGTCATGAGGTGGCATTCTAGTGATTATTGCGACGGAGTCACCTAGTGCAG", "binding signal": "8320 fluorescence intensity (a.u.)"},
      {"sequence": "CATTCCATTCATGACGCCATTAATTTAGCTATTTGAGTCACGGAGTCACCTAGTGCAG", "binding signal": "3870 fluorescence intensity (a.u.)"},
      {"sequence": "TAACCCAGTGCAAATTAAAGTGCAGCAAGGAAGATGCAACCGGAGTCACCTAGTGCAG", "binding signal": "17900 fluorescence intensity (a.u.)"},
      {"sequence": "CGGCTTGGTGACCCTACTGCGCCGCCAAGTCACCCGCTCGCGGAGTCACCTAGTGCAG", "binding signal": "5330 fluorescence intensity (a.u.)"},
      {"sequence": "ATGTCCCGCACACCACCCCTCGGCCGCGTCGGCAGCGACCCGGAGTCACCTAGTGCAG", "binding signal": "4280 fluorescence intensity (a.u.)"},
      {"sequence": "TACATATATATATACATATATATATATATATACATATATACGGAGTCACCTAGTGCAG", "binding signal": "30400 fluorescence intensity (a.u.)"},
      {"sequence": "TGTGTGCTGTGCTGTGCAGTGGCGATGACTGCTTTGCTGCCGGAGTCACCTAGTGCAG", "binding signal": "3770 fluorescence intensity (a.u.)"},
      {"sequence": "CATCTCCCTCAACGTCATCGCCATCGGCCTCTCCGCCCTCCGGAGTCACCTAGTGCAG", "binding signal": "6370 fluorescence intensity (a.u.)"},
      {"sequence": "TCCCTGACTCCGCGACTGCTCCTCCTTCCTCCTCTCTCCTCGGAGTCACCTAGTGCAG", "binding signal": "3270 fluorescence intensity (a.u.)"},
      {"sequence": "TGGGTCCCTCCATGCTGAGTCAGCTTGTCAATCGGGTCAACGGAGTCACCTAGTGCAG", "binding signal": "21900 fluorescence intensity (a.u.)"},
      {"sequence": "GGAATCCAGAATGAGTTTGGAGGGAGGCTCGTCTTTACGACGGAGTCACCTAGTGCAG", "binding signal": "23700 fluorescence intensity (a.u.)"},
      {"sequence": "TCTGCAATCGCCTCATTTGTTGCCTAGCTAATTCGCGTCACGGAGTCACCTAGTGCAG", "binding signal": "4140 fluorescence intensity (a.u.)"},
      {"sequence": "CGAGGCCACGCGCAGCCCCTCGCCTCGCCACGACACGGATCGGAGTCACCTAGTGCAG", "binding signal": "5180 fluorescence intensity (a.u.)"},
      {"sequence": "ATTACATACTGGATGTGGATGATTTGCTTCATTAGAAATACGGAGTCACCTAGTGCAG", "binding signal": "3700 fluorescence intensity (a.u.)"},
      {"sequence": "GATTAGTGTGGTGGCATTCTTTTCTTCCATGATGCTACAGCGGAGTCACCTAGTGCAG", "binding signal": "3410 fluorescence intensity (a.u.)"},
      {"sequence": "ACTAAATTGACTTATTAGGTGTTGTCACAGTTTACTTGACCGGAGTCACCTAGTGCAG", "binding signal": "4870 fluorescence intensity (a.u.)"},
      {"sequence": "ATACACTCATTACGTTTGCTGTTGACAGGCTATCAAGATGCGGAGTCACCTAGTGCAG", "binding signal": "5100 fluorescence intensity (a.u.)"},
      {"sequence": "CTCGACATTGCTGGCAATGCCTGGGAGATTGCTTGCCATGCGGAGTCACCTAGTGCAG", "binding signal": "3180 fluorescence intensity (a.u.)"},
      {"sequence": "AGTCAAGTGAATTGCTTACATGGCATGATTAACAATTGACCGGAGTCACCTAGTGCAG", "binding signal": "3600 fluorescence intensity (a.u.)"},
      {"sequence": "TTCCTTCGCTGTGACGTCGTTCGTTCTGGATTGGTTACACCGGAGTCACCTAGTGCAG", "binding signal": "5870 fluorescence intensity (a.u.)"},
      {"sequence": "AAGTGCAGACACGACACAGCGTGACGCCGCGGGACGTCTCCGGAGTCACCTAGTGCAG", "binding signal": "3680 fluorescence intensity (a.u.)"},
      {"sequence": "CAGGCCACACACGTCGATGACTCCACCAGCCGTTATTCTTCGGAGTCACCTAGTGCAG", "binding signal": "6270 fluorescence intensity (a.u.)"},
      {"sequence": "GGCGCTCCATCACCACTTGGGCAAACGAAAACGGTGGTCGCGGAGTCACCTAGTGCAG", "binding signal": "3880 fluorescence intensity (a.u.)"},
      {"sequence": "CCTCATTTTGCTACAAGTGTGTCATGCCATACAAAGTAAGCGGAGTCACCTAGTGCAG", "binding signal": "5750 fluorescence intensity (a.u.)"},
      {"sequence": "GTGCAAGCACGTGTGACAACAAACACATCCATGGCGATATCGGAGTCACCTAGTGCAG", "binding signal": "3170 fluorescence intensity (a.u.)"},
      {"sequence": "GCATATTGACAAGGAGGAGGAAAAGAAAAGAGATAGAGAGCGGAGTCACCTAGTGCAG", "binding signal": "7890 fluorescence intensity (a.u.)"},
      {"sequence": "ACTCGCGCACTCGCGCTCGCTCGCACGAACGCACGCACGCCGGAGTCACCTAGTGCAG", "binding signal": "3670 fluorescence intensity (a.u.)"},
      {"sequence": "GTTGGAGGACGATTTTGTAACTCGATGACTAGTTGAGGGACGGAGTCACCTAGTGCAG", "binding signal": "3460 fluorescence intensity (a.u.)"},
      {"sequence": "GTACACCGGACGGAAGATGAGTCAGCCATTCTATTATCAGCGGAGTCACCTAGTGCAG", "binding signal": "5860 fluorescence intensity (a.u.)"}
    ]}
  ]
}
